Measurements as given in patent publication US9566347B2, “Peptides and methods using same” (The Trustees of the University of Pennsylvania, priority 2011, dated 2017).
Part of at least one peptide drawing is inferred or uncertain, most often the ends. Residues, ends and D or L forms follow the SMILES beside them.

Amino acid sequences for entries named in this document (tags omitted). Residues count along the entry.
UniProt P78324, 31-373 limits assumed: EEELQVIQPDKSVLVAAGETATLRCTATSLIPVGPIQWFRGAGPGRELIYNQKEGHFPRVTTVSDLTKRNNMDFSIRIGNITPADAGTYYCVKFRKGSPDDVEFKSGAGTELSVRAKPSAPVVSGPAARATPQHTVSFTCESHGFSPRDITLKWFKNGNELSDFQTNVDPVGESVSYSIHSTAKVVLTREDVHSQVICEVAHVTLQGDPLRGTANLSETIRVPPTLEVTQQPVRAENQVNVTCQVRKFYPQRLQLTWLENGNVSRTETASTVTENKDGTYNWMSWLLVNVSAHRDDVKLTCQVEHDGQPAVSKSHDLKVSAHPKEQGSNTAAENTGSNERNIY

Target: hSIRP-alpha (Homo sapiens, UniProt P78324)
Assay: Soluble peptide inhibition of hSIRP-alpha binding to polypeptide beads
Conditions: peptide as soluble inhibitor
From the text: Synthesis of the three designs and Scrambled-peptides with or without biotin attached via either an aminohexanoic acid linker (C6) or a PEG linker, enabled functional testing of binding to soluble hSIRP-alpha as well as inhibition of nanobead phagocytosis. […] The 10-aa FG-hairpin was synthesized without attachment of biotin for use as a soluble inhibitor of hSIRP-alpha binding to polypeptide beads. […] While conformational constraints the minimal FG-hairpin combined with the likely lack of a stable structure underscores the utility of at least some backbone flexibility.

Structure (SMILES): CC(C)C[C@H](NC(=O)[C@H](CCC(=O)O)NC(=O)[C@@H](NC(=O)[C@@H](NC(=O)[C@@H](N)CCC(=O)O)C(C)C)[C@@H](C)O)C(=O)N[C@H](C(=O)N[C@@H](CCCNC(=N)N)C(=O)N[C@@H](CCC(=O)O)C(=O)NCC(=O)N[C@@H](CCC(=O)O)C(=O)O)[C@@H](C)O [FG-hairpin, EVTELTREGE] (H-EVTELTREGE-OH; N-terminus and C-terminus assumed)
- inhibition of hSIRP-alpha binding to polypeptide beads (in words): inhibited interactions
